In patent EP3259288B1 (Innate Pharma, dated 2026):
Where a chain is given by its changes, count along the chain named. These are yes or no findings as the source states them, for the method shown. Some entries that bind do so weakly or less than the wild type. For some of these results: Sequences can lack the tags named with a protein. Values belong to the binder of their own block, whether it stands above or below them.

Columns and labels:
[1] = target: T1, recombinant human CD73-His extracellular domain recombinant protein (soluble dimer) (human) (UniProt P21589); assay: ELISA on coated recombinant human CD73
T1 sequence: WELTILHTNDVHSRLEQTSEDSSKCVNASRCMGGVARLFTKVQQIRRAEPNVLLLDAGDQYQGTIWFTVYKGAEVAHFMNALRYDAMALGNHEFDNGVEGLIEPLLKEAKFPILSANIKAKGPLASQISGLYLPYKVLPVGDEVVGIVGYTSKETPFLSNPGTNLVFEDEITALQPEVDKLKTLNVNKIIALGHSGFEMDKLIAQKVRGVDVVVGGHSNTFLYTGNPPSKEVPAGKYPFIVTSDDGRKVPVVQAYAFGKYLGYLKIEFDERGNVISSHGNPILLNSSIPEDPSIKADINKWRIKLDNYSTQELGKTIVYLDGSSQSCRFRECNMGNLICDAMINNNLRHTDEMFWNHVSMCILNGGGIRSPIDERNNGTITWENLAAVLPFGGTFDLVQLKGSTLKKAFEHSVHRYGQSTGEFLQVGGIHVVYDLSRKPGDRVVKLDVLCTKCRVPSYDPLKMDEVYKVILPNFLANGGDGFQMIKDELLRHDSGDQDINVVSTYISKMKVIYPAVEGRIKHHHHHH

[2] = target: T2, human CD73 mutant 2 (human) (UniProt P21589); assay: Figure 7 legend: flow cytometry titration on cells expressing CD73 mutant 2
T2 sequence: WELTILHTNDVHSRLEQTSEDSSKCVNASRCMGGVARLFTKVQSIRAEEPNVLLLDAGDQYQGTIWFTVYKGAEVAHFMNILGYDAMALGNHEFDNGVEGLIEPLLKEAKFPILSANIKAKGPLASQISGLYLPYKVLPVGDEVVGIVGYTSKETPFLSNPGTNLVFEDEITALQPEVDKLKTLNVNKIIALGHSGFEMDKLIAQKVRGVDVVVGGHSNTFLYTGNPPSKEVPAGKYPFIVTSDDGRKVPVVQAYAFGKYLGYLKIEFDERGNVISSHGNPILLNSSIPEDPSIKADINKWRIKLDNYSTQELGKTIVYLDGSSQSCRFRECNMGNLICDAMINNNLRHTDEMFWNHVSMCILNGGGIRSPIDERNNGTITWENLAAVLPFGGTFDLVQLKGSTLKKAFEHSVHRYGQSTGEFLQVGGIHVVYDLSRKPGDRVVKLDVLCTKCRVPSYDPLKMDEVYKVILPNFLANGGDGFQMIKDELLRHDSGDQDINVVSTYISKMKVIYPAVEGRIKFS

binding [1]: binds
B1: antibody 11E1 (antibody, V domains shown)
VH: EIQLQQSGPELVKPGASVKVSCKASGYAFTSYNMYWVKQSHGKSLEWIGYIDPYNGGTSYNQKFKGKATLTVDKSSSTAYMHLNSLTSEDSAVYYCARGYGNYKAWFAYWGQGTLVTVSA
VL: DAVMTQTPKFLLVSAGDRVTITCKASQSVTNDVAWYQQKPGQSPKLLIYYASNRYTGVPDRFTGSGYGTDFTFTISTVQAEDLAVYFCQQDYSSLTFGAGTKLELK

binding [1]: binds
B2: antibody 8C7 (antibody, V domains shown)
VH: B1 VH with I2V, T30A, Y35N, E46D, T58S, Q62L, K63T, S77T
VL: SIVMTPTPKFLLVSAGDRVTITCKASQSVSNDVAWYQQKPGQSPKLLIYYASTRYTGVPDRFTGSGYGTDFTFTISTVQAEDLAVYFCQQDYSSLTFGAGTKLELKR

binding [2]: binds
B3: antibody 3C12 (antibody, V domains shown)
VH: B1 VH with E1Q, T30A, Y35N, E46D, T58S, Q62L, K63T, S77T
VL: B2 VL with S1D, I2V, P6Q

binding [1]: binds
B4: antibody 6E1 (antibody, V domains shown)
VH: B1 VH with I2F, S44R, T58S, S85N, G101N
VL: B1 VL with D1S, A2I, V78M
